Our source for the binding values is publication doi:10.1101/844126.

This assay addresses T1, Splicing Factor Proline- and Glutamine- rich protein (SFPQ), truncated, residues 276 to 535 (human) (UniProt P23246).
T1 sequence: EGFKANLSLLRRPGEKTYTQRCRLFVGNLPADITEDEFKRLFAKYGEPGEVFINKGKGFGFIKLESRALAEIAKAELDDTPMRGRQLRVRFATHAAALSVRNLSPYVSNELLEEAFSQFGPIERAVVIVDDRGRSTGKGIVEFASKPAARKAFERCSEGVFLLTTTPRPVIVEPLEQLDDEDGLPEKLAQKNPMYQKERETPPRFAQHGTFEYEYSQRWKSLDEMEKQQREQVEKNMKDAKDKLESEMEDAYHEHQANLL
The experiment in a line: co-purification.

Results are given in words; binding and its absence hold for the method and conditions named. Some results given as binding are weak or reduced against the parent protein; the word gives no strength.

B1: ParaSpeckle Protein Component 1 (PSPC1), truncated, amino acids 53 to 320 (domain or fragment, UniProt Q8WXF1 53-320)
chain: PEDHPDEEMGFTIDIKSFLKPGEKTYTQRCRLFVGNLPTDITEEDFKRLFERYGEPSEVFINRDRGFGFIRLESRTLAEIAKAELDGTILKSRPLRIRFATHGAALTVKNLSPVVSNELLEQAFSQFGPVEKAVVVVDDRGRATGKGFVEFAAKPPARKALERCGDGAFLLTTTPRPVIVEPMEQFDDEDGLPEKLMQKTQQYHKEREQPPRFAQPGTFEFEYASRWKALDEMEKQQREQVDRNIREAKEKLEAEMEAARHEHQLMLM
Consider B1, for which the binding entry was “binds”.
